No constants are given. Whether binding was seen depends on the method and setting. Binding seen in cells or lysates may run through a third protein. Binding calls can cover weak binding; strength is not graded here. Tags and fused reporters may be left off the sequences shown.
molecular target: T1, QQT1–nLUC (Arabidopsis thaliana) (UniProt Q56XY2); assay: split reporter; firefly luciferase complementation imaging (LCI): nLUC and cLUC fusions co-expressed by agroinfiltration (with p19) in N. benthamiana leaves for 2 d; 1 mM luciferin sprayed, LUC images taken
T1 sequence: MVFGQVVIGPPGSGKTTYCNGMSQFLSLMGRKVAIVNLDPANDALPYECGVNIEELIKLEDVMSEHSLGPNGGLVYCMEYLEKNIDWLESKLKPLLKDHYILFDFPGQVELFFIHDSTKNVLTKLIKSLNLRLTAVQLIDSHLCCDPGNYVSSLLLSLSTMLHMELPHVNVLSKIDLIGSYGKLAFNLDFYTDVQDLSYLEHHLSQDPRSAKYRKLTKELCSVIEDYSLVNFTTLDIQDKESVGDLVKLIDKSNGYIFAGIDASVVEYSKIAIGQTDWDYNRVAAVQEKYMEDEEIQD

By UniProt entry, the sequences of proteins in these tests, tags left out. Where a name states a change or a piece, a line headed by the entry shows the natural chain unless it says otherwise.
UniProt Q9S7N7: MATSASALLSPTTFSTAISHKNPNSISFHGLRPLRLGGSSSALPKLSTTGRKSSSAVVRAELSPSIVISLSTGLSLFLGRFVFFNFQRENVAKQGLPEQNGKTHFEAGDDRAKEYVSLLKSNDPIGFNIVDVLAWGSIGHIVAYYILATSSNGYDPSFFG
UniProt Q9SYW8: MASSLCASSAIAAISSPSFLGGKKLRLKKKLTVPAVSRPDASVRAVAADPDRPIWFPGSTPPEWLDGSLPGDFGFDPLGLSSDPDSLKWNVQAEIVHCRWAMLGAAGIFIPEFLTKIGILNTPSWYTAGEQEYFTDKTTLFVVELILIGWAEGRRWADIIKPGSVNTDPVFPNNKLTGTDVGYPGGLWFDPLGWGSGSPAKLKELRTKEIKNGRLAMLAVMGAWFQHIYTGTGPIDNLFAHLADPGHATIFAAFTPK
UniProt Q9XF91: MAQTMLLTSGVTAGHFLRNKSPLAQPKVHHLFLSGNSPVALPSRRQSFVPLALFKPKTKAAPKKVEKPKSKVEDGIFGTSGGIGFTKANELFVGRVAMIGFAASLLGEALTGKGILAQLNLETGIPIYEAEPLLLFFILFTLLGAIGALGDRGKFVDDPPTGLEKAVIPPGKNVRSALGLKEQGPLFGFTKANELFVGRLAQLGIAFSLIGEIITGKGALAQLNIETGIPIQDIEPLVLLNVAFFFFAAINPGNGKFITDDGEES

binding	Substance
binds	PSI subunit G (PSAG)–cLUC (from UniProt Q9S7N7)
binds	PSI light-harvesting complex gene 2 (LHCA2)–cLUC (from UniProt Q9SYW8)
no binding	U11/U12-59K protein, LCI construct
binds	PSII subunit S (PSBS)–cLUC (from UniProt Q9XF91)
no binding	U11/U12-31K protein, LCI construct (Arabidopsis thaliana)
no binding	U11/U12-65K protein, LCI construct (Arabidopsis thaliana)
binds	PSII light-harvesting complex gene B1B1 (LHCB1)–cLUC (Arabidopsis thaliana)

Source: PMC5853960
